The text below walks through data of patent publication EP4549469A1.

The chains behind the UniProt entries cited, without tags or fusion partners. Residues count along the entry.
UniProt P40126, residues 24-472: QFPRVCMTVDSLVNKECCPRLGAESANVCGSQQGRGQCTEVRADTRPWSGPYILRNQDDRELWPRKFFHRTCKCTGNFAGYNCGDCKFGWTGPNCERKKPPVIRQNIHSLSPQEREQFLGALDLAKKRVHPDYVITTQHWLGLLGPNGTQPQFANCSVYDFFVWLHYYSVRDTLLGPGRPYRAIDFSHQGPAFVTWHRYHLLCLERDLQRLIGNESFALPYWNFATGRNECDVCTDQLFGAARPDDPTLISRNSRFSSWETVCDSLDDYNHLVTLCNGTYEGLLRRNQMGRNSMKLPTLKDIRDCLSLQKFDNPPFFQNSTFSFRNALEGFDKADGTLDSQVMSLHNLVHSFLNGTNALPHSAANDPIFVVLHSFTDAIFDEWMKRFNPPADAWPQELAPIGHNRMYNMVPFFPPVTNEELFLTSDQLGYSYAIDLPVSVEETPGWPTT

Sequences and labels used below:
B1: Clone 7 (monoclonal antibody) (antibody, V domains shown)
VH: QVQLQQSGAELVRPGASVTLSCKAPGYIFIDYEIHWVKQTPVHGLEWIGAIDPETGGTAYNQKFKGKARLTADISSSTAYMDLRSLTSEDSAVYYCTRDYGYDDFGVWGTGTTVTVSS
VL: DIVMTQSHKFMSTSVGDRVNITCKASQDVNTAVAWYQQAPGQSPKLLIYSASYRYTGVPDRFTGSGSGTDFTFTISSVKAEDLAVYYCQQHYSTPYTFGGGTKLEIK
B2: Clone 6 (anti-TRP2 monoclonal antibody) (antibody, V domains shown)
VH: QVQLQQSGAELMKPGASVKLSCKATGYTFTGYWIEWVKQRPGHGLEWIGEILPGSGSTNYNEKFKGKATFTADTSSNTAYMQLSSLTTEDSAIYYCASGAYWGQGTLVTVSA
VL: DIQMTQSPASLSVSVGETVTITCRASENIYSNLAWYQQKQGKSPQLLVYAATNLADGVPSRFSGSGSGTQYSLKINSLQSEDFGSYYCQHFWGTPYTFGGGTKLEIK
B3: Clone 2 (anti-TRP2 monoclonal antibody) (antibody, V domains shown)
VH: EVQLVESGGDLVKPGGSLKLSCAASGFTFSSYGMSWVRQTPDKRLEWVATISSGGSYTYYPDSVKGRFTISRDNAKNTLYLQMSSLKSEDTAMYYCARLGVTTVVHGAMDYWGQGTSVTVSS
VL: DIQMTQSPASLSASVGETVTITCRASENIYSYLAWYQQKQGKSPQLLVYNAKTLAEGVPSRFSGSGSGTQFSLKINSLQPEDFGSYYCQHHYGTPWTFGGGTKLEIK
B4: Clone 5 (monoclonal antibody) (antibody, V domains shown)
VH: DVQLQESGPGLVKPSQSLSLTCSVTGYSITSGYYWNWIRQFPGNKLEWMGYISYDGSNNYNPSLKNRISITRDTSKNQFFLKLNSVTTEDTATYYCAREGYYGNEGYWGQGTTLTVSS
VL: DIQMTQTTSSLSASLGDRVTISCRASQDISNYLNWYQQKPDGTVKLLIYYTSRLHSGVPSRFSGSGSGTDYSLTISNLEQEDIATYFCQQGNTLPYTFGGGTKLEIK
B5: Clone 8 (monoclonal antibody) (antibody, V domains shown)
VH: QVQLQQSGAELVKPGASVKISCKASGYTFSNYWMNWVKQRPGKGLQWIGQIYPGDGDTNYNGKFEGTATLTADKSSSTAYMQLSSLTSEDSAVYFCARAYYDYAYYFDYWGQGTTLTVSS
VL: ETTVTQSPASLSVATGEKVTIRCIISTDIDDDMNWYQQKPGEPPKLLISEGNTLRPGVPSRFSSSGYGTDFVFTIENTLSEDVADYYCLQSDNMPLTFGGGTKLEIK

Results are given in words; binding and its absence hold for the method and conditions named. Some binding calls cover weakened binding; strength is not graded here.

In the experiment the target is recombinant human TRP2 (human) (UniProt P40126). Description: ELISA on recombinant human TRP2 (Fig. 7B).
Turning to B1, the binding result is listed as “binds”.
On to B2, for which the binding entry is listed as “binds”.
The same measure for B3: “binds”.
The same measure for B4: “binds”; for B5: “binds”.
